# Results as given in PubChem BioAssay (EPA / NIEHS).
# Inconclusive results, whose numbers are uncertain, are shown with a selection of clear calls. For part of these data: Where the call is inconclusive, the potency comes from a doubtful curve fit. Active and inactive are the calls of the source. How the source made its calls: active means hit-call score of the fitted dose curve at least 0.9, where 1 is the maximum; inconclusive means response in the unintended direction; inactive means score below 0.9.
# Key:
# [1] = read-out: xenobiotic metabolism (CYP1A1), CYP1A1 (gene 1543); assay: CLD_CYP1A1_6hr: CellzDirect (CLD) Gene Expression Assay for xenobiotic metabolism (CYP1A1) at 6 hours (AID 2283661);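 further: potency for transcript induction above DMSO vehicle baseline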
# Outline: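 Read-out 6 h post-dose: qNPA chemiluminescent quantitation of transcript induction against 0.2% DMSO. Cells were cultured primary human hepatocytes from two separate donor preparations; phase-contrast morphology annotated apparent cytotoxicity.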
# [2] = read-out: xenobiotic metabolism (CYP1A2), CYP1A2 (gene 1544); assay: CLD_CYP1A2_6hr: CellzDirect (CLD) Gene Expression Assay for xenobiotic metabolism (CYP1A2) at 6 hours (AID 2283663);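 on AC50: potency is for induction meaning a rise in mRNA above DMSO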
# Outline: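 mRNA levels quantified by quantitative nuclease protection assay with chemiluminescence, 6 h after dosing human primary hepatocyte cultures (two donors) across several concentrations, vehicle 0.2% DMSO. Induction fitted upward versus DMSO; phase-contrast cytotoxicity annotated.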
# [3] = test system: Thyroperoxidase (TPO), gene 54314; assay: CCTE_Simmons_AUR_rTPO: CCTE's Amplex UltraRed Assay for Thyroperoxidase (TPO) Inhibition, Simmons Lab (AID 2283662)
# Outline: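 Rat thyroid microsomes (5 ug protein) were incubated with test compound (8 concentrations, 5 nM–87.5 uM final, 0.5% DMSO), 25 uM Amplex UltraRed and 300 uM H2O2 in 200 mM phosphate buffer for 30 min at 37C in the dark; fluorescence read at 544/590 nm.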
# [4] = Tanguay_ZF_120hpf_TR_legacy: (Legacy) Oregon State University Tanguay Lab 120 Hour Post-fertilization zebrafish Assay for Touch Response (AID 2283667)
# Outline: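 Readout is presence or absence of touch response in 120 hpf zebrafish larvae, assessed by brightfield observation after continuous static exposure at 28C. Final vehicle was 0.64% (vol/vol) DMSO.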
# [5] = CCTE_Simmons_CellTiterGLO_HEK293T: Viability Assessment in CCTE's Assays for Thyroperoxidase (TPO) Inhibition, Simmons Lab (AID 2283665);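 further: cells exposed to compound for 24 h before readout; actives reduce ATP signal below DMSO vehicle meaning cytotoxicity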
# Outline: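 Luciferase-coupled ATP content after 24 h exposure gives viability; 8-point series from 5 nM to 87.5 uM final in 0.5% DMSO. Human HEK293T cells, 1% FBS medium, three biological replicates, dichlone positive control.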
structure (smiles),measurement,setting,value
Cc1nn(C)c(Oc2ccccc2)c1C=NOCc1ccc(C(=O)OC(C)(C)C)cc1,AC50,[1],inconclusive: 20000 nM
same,AC50,[2],inconclusive: 64.3 nM
CCOC(=O)C(C)Oc1ccc(Oc2cnc3cc(Cl)ccc3n2)cc1 (centres undefined),AC50,[1],inconclusive: 13.6 nM
O=C(c1ccc(OCCN2CCCCC2)cc1)c1c(-c2ccc(O)cc2)sc2cc(O)ccc12,outcome,[3],inactive
same,AC50,[4],inconclusive: 41900 nM
C[C@]12C=CC(=O)C=C1CC[C@@H]1[C@@H]2C(=O)C[C@@]2(C)[C@H]1CC[C@]2(O)C(=O)CO,outcome,[3],inactive
same,outcome,[4],inactive
CCOC(=O)COc1cc(-n2ncc(C(F)(F)F)c(C)c2=O)c(F)cc1Cl,outcome,[2],inactive
CC[C@H](C)C(=O)O[C@H]1C[C@@H](C)C=C2C=C[C@H](C)[C@H](CC[C@@H]3C[C@@H](O)CC(=O)O3)[C@H]21,AC50,[5],inconclusive: 24 nM
